Results taken from US9303064B2 (CAREGEN CO., LTD., priority 2011, dated 2016).

Test: peptide synthesis
Conditions: whole synthesis

SIPCKLQSG
crude yield: 93%

Where a sequence shows no end group, the ends are not given.
